Data reported in the supplement of paper PMC10849652.
This is one part of the list.

The chains behind the UniProt entries cited, without tags or fusion partners. Where a name states a change or a piece, a line headed by the entry shows the natural chain unless it says otherwise.
UniProt Q5T7V8: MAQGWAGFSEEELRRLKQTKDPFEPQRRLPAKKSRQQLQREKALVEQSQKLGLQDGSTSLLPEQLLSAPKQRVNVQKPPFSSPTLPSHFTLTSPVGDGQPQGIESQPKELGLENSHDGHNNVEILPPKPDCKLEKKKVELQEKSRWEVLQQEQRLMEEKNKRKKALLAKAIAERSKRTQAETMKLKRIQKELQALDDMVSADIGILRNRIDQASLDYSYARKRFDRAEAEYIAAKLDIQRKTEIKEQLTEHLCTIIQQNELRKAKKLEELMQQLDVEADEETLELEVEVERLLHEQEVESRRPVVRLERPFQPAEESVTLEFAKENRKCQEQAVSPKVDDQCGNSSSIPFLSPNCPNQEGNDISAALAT
UniProt B7ZAQ6: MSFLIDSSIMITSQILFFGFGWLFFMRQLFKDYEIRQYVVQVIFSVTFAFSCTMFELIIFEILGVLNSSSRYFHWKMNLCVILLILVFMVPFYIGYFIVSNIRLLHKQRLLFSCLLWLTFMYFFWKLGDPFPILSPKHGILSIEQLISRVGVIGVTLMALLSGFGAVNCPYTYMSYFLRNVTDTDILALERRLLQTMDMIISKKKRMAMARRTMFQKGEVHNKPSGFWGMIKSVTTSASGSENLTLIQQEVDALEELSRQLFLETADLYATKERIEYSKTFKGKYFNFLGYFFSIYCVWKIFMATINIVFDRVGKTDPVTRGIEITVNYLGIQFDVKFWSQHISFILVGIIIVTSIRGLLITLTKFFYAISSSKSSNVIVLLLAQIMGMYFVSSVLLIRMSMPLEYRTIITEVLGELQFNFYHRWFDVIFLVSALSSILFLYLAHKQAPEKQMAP
UniProt A6NDN3: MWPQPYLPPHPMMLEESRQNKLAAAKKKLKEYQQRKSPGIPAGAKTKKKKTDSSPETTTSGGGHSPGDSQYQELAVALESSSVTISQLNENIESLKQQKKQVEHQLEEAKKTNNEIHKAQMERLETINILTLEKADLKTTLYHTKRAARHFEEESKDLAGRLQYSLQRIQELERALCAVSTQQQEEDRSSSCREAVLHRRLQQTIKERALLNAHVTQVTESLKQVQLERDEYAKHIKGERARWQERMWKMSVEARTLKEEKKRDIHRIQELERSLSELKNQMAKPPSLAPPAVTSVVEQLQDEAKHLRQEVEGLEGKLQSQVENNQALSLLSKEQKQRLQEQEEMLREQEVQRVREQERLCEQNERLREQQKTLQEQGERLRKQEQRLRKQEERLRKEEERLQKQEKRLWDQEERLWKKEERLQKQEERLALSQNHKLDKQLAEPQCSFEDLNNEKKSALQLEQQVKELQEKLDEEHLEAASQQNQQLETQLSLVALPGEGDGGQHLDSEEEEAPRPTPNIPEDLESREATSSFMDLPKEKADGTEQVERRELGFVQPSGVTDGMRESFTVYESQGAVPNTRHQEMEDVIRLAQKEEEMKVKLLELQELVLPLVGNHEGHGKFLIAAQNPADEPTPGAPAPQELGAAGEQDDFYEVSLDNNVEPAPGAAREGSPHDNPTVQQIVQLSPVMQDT
UniProt P50148, whole entry, looked up: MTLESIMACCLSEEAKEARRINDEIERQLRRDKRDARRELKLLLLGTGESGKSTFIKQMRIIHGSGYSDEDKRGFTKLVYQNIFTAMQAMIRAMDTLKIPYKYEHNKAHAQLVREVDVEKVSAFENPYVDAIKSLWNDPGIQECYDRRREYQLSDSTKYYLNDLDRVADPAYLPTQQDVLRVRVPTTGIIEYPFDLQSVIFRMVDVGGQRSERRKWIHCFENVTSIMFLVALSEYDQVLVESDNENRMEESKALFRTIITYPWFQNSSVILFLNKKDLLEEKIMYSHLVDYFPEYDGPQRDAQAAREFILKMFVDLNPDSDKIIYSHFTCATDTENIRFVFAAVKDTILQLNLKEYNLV
UniProt Q6ZS86: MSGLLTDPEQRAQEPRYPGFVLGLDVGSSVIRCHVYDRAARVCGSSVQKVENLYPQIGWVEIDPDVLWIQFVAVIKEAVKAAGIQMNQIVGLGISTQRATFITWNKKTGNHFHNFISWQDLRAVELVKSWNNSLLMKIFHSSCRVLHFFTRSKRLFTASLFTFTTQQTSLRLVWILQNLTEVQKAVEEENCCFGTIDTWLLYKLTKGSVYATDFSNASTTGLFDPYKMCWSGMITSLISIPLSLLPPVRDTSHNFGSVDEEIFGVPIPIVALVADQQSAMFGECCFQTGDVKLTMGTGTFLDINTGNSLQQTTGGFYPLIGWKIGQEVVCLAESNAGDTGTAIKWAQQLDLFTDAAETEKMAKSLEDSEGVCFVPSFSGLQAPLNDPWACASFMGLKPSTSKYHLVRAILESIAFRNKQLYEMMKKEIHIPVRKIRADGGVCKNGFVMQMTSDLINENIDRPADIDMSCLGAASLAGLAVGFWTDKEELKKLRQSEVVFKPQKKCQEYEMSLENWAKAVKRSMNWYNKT
UniProt O60547: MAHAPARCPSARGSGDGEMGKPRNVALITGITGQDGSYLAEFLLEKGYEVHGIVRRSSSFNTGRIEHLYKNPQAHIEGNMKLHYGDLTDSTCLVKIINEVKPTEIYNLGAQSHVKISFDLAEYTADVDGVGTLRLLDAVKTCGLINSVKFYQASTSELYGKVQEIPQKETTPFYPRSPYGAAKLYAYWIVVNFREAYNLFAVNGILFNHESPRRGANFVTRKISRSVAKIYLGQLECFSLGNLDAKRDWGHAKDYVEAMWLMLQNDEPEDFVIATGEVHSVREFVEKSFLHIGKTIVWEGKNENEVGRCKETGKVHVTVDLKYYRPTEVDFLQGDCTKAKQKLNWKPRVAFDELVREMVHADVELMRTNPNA
UniProt Q9UKD1: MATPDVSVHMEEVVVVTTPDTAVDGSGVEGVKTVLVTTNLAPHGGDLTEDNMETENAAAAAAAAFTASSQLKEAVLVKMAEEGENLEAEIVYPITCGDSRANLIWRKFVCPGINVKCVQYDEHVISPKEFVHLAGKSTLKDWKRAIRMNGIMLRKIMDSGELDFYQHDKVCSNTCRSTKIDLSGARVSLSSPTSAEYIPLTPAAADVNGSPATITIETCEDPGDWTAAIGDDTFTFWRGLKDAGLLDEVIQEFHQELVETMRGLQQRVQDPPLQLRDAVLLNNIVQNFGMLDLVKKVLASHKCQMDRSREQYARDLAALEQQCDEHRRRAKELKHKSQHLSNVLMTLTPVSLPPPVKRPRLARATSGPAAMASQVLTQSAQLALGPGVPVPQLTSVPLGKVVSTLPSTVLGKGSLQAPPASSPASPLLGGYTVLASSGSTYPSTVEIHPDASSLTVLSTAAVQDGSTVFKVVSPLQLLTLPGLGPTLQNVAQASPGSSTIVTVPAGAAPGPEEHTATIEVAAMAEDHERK
UniProt Q9UJJ9: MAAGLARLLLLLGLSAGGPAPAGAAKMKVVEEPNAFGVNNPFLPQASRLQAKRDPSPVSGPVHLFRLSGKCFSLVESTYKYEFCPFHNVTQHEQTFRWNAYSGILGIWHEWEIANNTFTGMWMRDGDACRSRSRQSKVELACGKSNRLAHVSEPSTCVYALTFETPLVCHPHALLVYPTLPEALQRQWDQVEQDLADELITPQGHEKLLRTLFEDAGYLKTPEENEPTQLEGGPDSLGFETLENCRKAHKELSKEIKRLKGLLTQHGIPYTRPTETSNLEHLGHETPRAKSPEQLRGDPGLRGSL
UniProt P28799: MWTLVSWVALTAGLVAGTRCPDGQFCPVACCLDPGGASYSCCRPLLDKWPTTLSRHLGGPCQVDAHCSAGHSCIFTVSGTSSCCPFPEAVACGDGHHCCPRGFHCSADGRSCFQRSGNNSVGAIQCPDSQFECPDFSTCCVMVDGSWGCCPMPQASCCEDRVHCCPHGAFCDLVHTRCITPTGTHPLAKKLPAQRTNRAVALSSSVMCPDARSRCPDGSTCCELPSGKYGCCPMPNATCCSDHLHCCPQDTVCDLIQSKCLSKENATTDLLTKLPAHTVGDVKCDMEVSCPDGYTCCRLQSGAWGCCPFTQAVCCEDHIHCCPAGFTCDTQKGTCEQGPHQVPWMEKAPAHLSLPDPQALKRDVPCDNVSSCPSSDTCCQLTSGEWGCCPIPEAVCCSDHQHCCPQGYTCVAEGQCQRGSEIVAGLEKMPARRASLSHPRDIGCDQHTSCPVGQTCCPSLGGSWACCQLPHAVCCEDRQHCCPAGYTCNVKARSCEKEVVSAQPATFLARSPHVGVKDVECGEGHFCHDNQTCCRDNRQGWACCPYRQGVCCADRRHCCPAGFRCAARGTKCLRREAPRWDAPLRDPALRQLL
UniProt Q3T8J9: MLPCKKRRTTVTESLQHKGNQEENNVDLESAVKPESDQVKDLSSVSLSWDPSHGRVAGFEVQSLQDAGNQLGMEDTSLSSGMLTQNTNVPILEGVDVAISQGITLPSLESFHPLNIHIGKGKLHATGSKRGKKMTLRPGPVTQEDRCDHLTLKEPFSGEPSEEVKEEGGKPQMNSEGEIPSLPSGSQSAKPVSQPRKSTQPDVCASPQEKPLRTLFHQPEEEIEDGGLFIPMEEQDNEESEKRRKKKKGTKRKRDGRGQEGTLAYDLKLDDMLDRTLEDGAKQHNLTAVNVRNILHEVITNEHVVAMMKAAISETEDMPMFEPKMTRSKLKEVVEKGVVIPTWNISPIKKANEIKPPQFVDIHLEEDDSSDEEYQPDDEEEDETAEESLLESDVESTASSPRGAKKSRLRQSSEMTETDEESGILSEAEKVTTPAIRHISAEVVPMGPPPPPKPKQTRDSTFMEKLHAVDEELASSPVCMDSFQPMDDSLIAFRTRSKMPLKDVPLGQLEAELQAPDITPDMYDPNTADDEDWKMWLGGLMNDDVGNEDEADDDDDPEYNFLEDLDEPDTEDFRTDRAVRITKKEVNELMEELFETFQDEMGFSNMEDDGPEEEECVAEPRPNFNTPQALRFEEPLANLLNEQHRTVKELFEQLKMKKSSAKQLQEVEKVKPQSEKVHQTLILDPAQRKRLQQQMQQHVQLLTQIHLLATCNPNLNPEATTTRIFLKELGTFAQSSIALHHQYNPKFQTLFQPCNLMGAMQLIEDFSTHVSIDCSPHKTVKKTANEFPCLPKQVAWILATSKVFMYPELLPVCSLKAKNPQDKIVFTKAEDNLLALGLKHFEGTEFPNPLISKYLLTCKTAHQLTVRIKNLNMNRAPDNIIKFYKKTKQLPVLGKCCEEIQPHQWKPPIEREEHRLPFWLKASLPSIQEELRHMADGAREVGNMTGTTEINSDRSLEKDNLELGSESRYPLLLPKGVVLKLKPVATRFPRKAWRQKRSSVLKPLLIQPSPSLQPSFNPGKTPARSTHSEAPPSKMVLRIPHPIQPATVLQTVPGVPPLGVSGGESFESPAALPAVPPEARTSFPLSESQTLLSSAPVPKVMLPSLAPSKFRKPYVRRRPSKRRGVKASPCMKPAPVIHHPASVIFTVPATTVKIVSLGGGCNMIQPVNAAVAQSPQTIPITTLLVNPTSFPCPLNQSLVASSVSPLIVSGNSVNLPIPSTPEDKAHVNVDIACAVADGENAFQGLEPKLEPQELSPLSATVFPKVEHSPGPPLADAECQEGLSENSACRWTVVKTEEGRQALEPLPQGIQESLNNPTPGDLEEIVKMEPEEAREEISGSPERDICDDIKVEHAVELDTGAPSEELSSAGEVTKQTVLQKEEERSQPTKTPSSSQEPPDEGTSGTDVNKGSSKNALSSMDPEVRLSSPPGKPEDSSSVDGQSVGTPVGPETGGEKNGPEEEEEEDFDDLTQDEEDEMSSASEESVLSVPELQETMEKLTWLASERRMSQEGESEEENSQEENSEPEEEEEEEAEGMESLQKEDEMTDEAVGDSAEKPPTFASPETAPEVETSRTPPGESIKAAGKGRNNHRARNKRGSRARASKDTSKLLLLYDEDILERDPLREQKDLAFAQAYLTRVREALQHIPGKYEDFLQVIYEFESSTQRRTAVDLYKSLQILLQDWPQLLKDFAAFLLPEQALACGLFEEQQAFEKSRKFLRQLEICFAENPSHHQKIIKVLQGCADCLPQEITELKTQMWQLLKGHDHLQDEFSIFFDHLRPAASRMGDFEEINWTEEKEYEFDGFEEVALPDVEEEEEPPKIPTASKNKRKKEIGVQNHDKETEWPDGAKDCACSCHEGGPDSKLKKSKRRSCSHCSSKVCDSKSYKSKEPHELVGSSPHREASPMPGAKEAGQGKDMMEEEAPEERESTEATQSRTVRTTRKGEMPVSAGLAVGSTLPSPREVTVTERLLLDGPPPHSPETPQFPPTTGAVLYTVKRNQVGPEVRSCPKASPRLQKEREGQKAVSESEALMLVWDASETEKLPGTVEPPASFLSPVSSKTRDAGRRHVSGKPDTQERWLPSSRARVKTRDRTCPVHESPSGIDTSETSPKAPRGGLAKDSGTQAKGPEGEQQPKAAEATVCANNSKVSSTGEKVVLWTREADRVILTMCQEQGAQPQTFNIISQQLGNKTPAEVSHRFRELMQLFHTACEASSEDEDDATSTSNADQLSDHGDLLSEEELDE

compound: C1=CC=C(C=C1)[C@H](COC2=CC3=C(C=C2)NC(=O)N3)NC(=O)C4=CC=CN(C4=O)CC5=CC(=C(C=C5)F)F; experiment: log2 fold change, soluble protein after heating vs DMSO (PISA); higher = thermal stabilisation; K562 cells, 10 uM, 30 min; active = over 0.2 and 3.5 SD of the protein, either way, in both replicates (recomputed)
Outline: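 K562 cells at 2×10^6 cells/mL were given 10 μM compound for 30 min. Aliquots then went through 3 min of heating across 48°C-58°C, were pooled, and were extracted in PBS with 0.5% NP-40 at 4°C, and the supernatant after 21,000xg for 90 min was quantified by TMTpro 16plex LC-MS/MS with channel sums equalised. Thermal stability relative to control samples, from duplicates, is given as log2 fold change.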

Target	log2 fold change
GORAB (UniProt Q5T7V8)	inactive: -0.357
GPAA1 (UniProt E9PLG8)	inactive: -0.018
GIT2 (UniProt Q14161)	inactive: -0.075
GPR89A (UniProt B7ZAQ6)	inactive: 0.003
GMIP (UniProt Q9P107)	inactive: 0.137
GPS2 (UniProt Q13227)	inactive: 0.015
GOLGA6B (UniProt A6NDN3)	inactive: 0.043
GLCE (UniProt O94923)	inactive: 0.055
GNAQ (UniProt P50148)	inactive: 0
GPAA1 (UniProt O43292)	inactive: -0.021
GPS1 (UniProt A8K070)	inactive: -0.046
GOSR1 (UniProt E9PCW1)	inactive: -0.054
GK5 (UniProt Q6ZS86)	inactive: 0.097
GMDS (UniProt O60547)	inactive: 0.034
GP6 isoform 3 (UniProt Q9HCN6)	inactive: 0.163
GMEB2 (UniProt Q9UKD1)	inactive: 0.037
GNPTG (UniProt Q9UJJ9)	inactive: 0.071
GRN (UniProt P28799)	inactive: -0.075
GNL2 (UniProt Q13823)	inactive: -0.081
GSE1 (UniProt Q14687)	inactive: -0.151
GON4L (UniProt Q3T8J9)	inactive: -0.207
GLUD2 (UniProt P49448)	inactive: 0.026

A section of the results above, for reference:
Target	log2 fold change
GK5 (UniProt Q6ZS86)	inactive: 0.097
GMDS (UniProt O60547)	inactive: 0.034
